Experimental data taken from ChEMBL document CHEMBL4011581, “Interference with bile salt export pump function is a susceptibility factor for human liver injury in drug development” (Toxicol Sci, 2010).

Target: Bile salt export pump (Homo sapiens, UniProt O95342)
Assay: Inhibition of human BSEP expressed in fall armyworm sf9 cell plasma membrane vesicles assessed as reduction in vesicle-associated [3H]-taurocholate transport preincubated for 10 mins prior to ATP addition measured after 15 mins in presence of [3H]-taurocholate by topcount based membrane vesicle transport assay
Format: ADME

SMILES | IC50
Cc1nc2n(c(=O)c1CCN1CCC(c3noc4cc(F)ccc34)CC1)CCCC2 [RISPERIDONE] | > 135 µM
CN1CCN(CCCN2c3ccccc3Sc3ccc(Cl)cc32)CC1 [PROCHLORPERAZINE] | > 135 µM
CCN(CC)CC#CCOC(=O)C(O)(c1ccccc1)C1CCCCC1 (stereo not drawn) [OXYBUTYNIN] | 27.4 µM
